Source: PubChem BioAssay AID540276 (National Center for Advancing Translational Sciences (NCATS), 2011)
Where “and” joins values, the source holds several entries; their conditions need not be identical. Equal entries are not always repeated. Hit rate of the full screen: of about 300,000 compounds, about 5,400 (1.8%) were called active. Inconclusive results, whose numbers are uncertain, are shown with a selection of clear calls. Calls come from the whole dose curve; tested in HEK293 cells. Where the call is inconclusive, the potency comes from a doubtful curve fit.

assay: qHTS for inhibitors of binding or entry into cells for Marburg Virus; settings: Marburg virus pseudotyped entry inhibition, cell reporter; series mostly up to 37.8 µM
Potency is the fitted concentration of half-maximal effect.

| SMILES | Potency |
| --- | --- |
| Cc1oncc1C(=O)Nc1ccc(C(F)(F)F)cc1 | active: 7.08 µM |
| O=C(CN1C(=O)C2CCCCC2C1=O)N1CCN(c2ccccc2)CC1 (stereo not drawn) | inconclusive: 20 µM [activator, single point] |
| Cc1ccc(-c2nn(-c3ccccc3)cc2/C=N/n2c(-c3cccs3)n[nH]c2=S)cc1 | inconclusive: 35.5 µM [inhibitor, single point] |
| COc1ccc(CN2C(=O)c3ccccc3C(/C=N/OCc3ccc(Cl)cc3)C2=O)cc1 (stereo not drawn) | inconclusive: 5.62 µM [inhibitor, single point] |
| N#Cc1nc(Cc2ccccc2)oc1NCCc1ccccc1 | inconclusive: 35.5 µM [inhibitor, single point] |
| Cc1ccc(-c2n[nH]c(=S)n2/N=C/c2c(C)nn(-c3ccccc3)c2C)cc1 | inconclusive: 35.5 µM [inhibitor, single point] |
| CCOC(=O)N1CCN(C(=O)C2CCN(Cc3ccc(OC)cc3OC)CC2)CC1 | inconclusive: 0.891 µM [inhibitor, single point] |
| Cn1ncc2c(NNC(=O)c3ccc(Cl)c(Cl)c3)ncnc21 | inactive |
| O=C(c1ccccc1)c1ccc(C(=O)N2CCOCC2)cc1 | inactive |
| O=C(O)c1cccnc1Nc1cccc(C(F)(F)F)c1 | inactive and inconclusive: 708 nM [inhibitor, full curve, poor fit] and inconclusive: 18.3 µM [activator, single point] |
| CCN(CC)C(=O)Oc1ccnc2cc(Cl)ccc12 | inactive |
| COc1ccc(/C=C(\NC(=O)c2ccco2)C(=O)Nc2ccc(C(C)=O)cc2)cc1 | inconclusive: 0.224 µM [inhibitor, partial curve, poor fit] |
| CC(C)c1ccc(CN2C(=O)NC3(CCCCCC3)C2=O)cc1 | inconclusive: 1.78 µM [inhibitor, full curve] |
| CC1CCN(CC(=O)N2c3ccccc3CC2C)CC1 (stereo not drawn) | inconclusive: 6.31 µM [activator, single point] |
| COc1ccc(N2CCN(c3oc(/C=C/c4cccc(OC)c4)nc3C#N)CC2)cc1 | inactive |
| Oc1ccc(Nc2nc(-c3cccs3)cs2)cc1 | inconclusive: 3.16 µM [activator, single point] |
| CN(C)C(CNC(=O)c1ccc(S(=O)(=O)N(C)C)cc1)Cc1ccccc1 (stereo not drawn) | inconclusive: 1 µM [inhibitor, full curve, poor fit] |
| Cc1cc(-c2ccccc2)nc(N/N=C/c2ccc(O)cc2O)n1 | inconclusive: 11.2 µM [inhibitor, partial curve, poor fit] |
| Cc1cccc(C2CC(=O)Oc3c2c(=O)oc2ccccc32)c1 (stereo not drawn) | inconclusive: 7.08 µM [inhibitor, partial curve, poor fit] |
| Cc1ccc(C(=O)NC2CCN(S(=O)(=O)c3ccccc3F)CC2)cc1 | inactive |
| CCOC(=O)c1ccc(NC(=O)c2cnccn2)cc1 | inactive |
| O=C(NCC(=O)N1CCN(c2ccccc2O)CC1)c1ccco1 | inconclusive: 35.5 µM [activator, single point] |
| Cc1nc2ccc(Cl)cc2nc(C)/c1=N\O | inactive |

A run of entries from further up, as a working copy:

| SMILES | Potency |
| --- | --- |
| CCOC(=O)c1ccc(NC(=O)c2cnccn2)cc1 | inactive |
| O=C(NCC(=O)N1CCN(c2ccccc2O)CC1)c1ccco1 | inconclusive: 35.5 µM [activator, single point] |

Compounds above that contain a Cl atom (4):

| SMILES | Potency |
| --- | --- |
| COc1ccc(CN2C(=O)c3ccccc3C(/C=N/OCc3ccc(Cl)cc3)C2=O)cc1 (stereo not drawn) | inconclusive: 5.62 µM [inhibitor, single point] |
| Cn1ncc2c(NNC(=O)c3ccc(Cl)c(Cl)c3)ncnc21 | inactive |
| CCN(CC)C(=O)Oc1ccnc2cc(Cl)ccc12 | inactive |
| Cc1nc2ccc(Cl)cc2nc(C)/c1=N\O | inactive |

Next records

| SMILES | Potency |
| --- | --- |
| CCOc1ccccc1CN1CCC(Oc2cccc(C(=O)NCCOC)c2)CC1 | inconclusive: 35.5 µM [inhibitor, partial curve, poor fit] |
| Cc1ccc(C(C)(C)C)cc1S(=O)(=O)N1CC(=O)Nc2ccccc21 | active: 10 µM |
| Cc1cccc(-c2nnc(SCCC(=O)O)o2)c1 | inconclusive: 1.26 µM [inhibitor, full curve, poor fit] |
| CNc1cc(C)nc(-n2nc(C)cc2C)n1 | inactive |
| CCC(C)[C@@H](C(=O)NCC1CCC(C(=O)O)CC1)n1nnc2ccccc2c1=O (stereo partly drawn) | inconclusive: 1.26 µM [inhibitor, single point] |
| CCOc1ccc(NC(=O)C2CCN(C(=O)NCc3ccccc3)CC2)cc1 | inconclusive: 0.73 µM [activator, full curve, poor fit] |
| O=C(Nc1nc(=O)n(C(=O)C2CC2)s1)c1ccccc1 | inconclusive: 1.26 µM [activator, full curve, poor fit] |
| O=C(N/N=C/C(Br)=C/c1ccccc1)c1cccs1 | inconclusive: 35.5 µM [inhibitor, single point] |
| Cc1cccc(NC(=O)Cn2nc(-c3cccs3)ccc2=O)c1C | inconclusive: 11.2 µM [activator, partial curve] |
| O=C(c1cnn2c(C(F)(F)F)cc(-c3ccco3)nc12)N1CCc2ccccc2C1 | inconclusive: 11.6 µM [inhibitor, partial curve, poor fit] |
| Cc1ccc(Cl)cc1NC(=O)COC(=O)CCN1C(=O)C2CC=CCC2C1=O (stereo not drawn) | inconclusive: 0.794 µM [inhibitor, partial curve, poor fit] |
| c1ccc(Cc2ccc(OCCN3CCOCC3)cc2)cc1 | inconclusive: 1.26 µM [inhibitor, single point] |
| CCc1ccc(OCC(=O)Nc2ncc3c(n2)CC(C)(C)CC3=O)cc1 | inactive |
| O=C1CCCC(O)=C1N=Nc1c(Cl)cc(Cl)cc1Cl | inconclusive: 1.12 µM [activator, single point] |
| CCOC(=O)C(=Cc1c[nH]c2ccc(S(=O)(=O)N(C)C)cc12)C(=O)OCC | inconclusive: 28.2 µM [inhibitor, single point] |
| c1coc(-c2nnc(NC3=NCCC3)o2)c1 | inconclusive: 6.31 µM [activator, single point] |
| Cn1c(=O)c2sccc2n2c(CCC(=O)NCc3ccccc3)nnc12 | inconclusive: 6.31 µM [activator, single point] |
| COC(=O)c1cc(CSc2nnc(-c3ccccc3)c(-c3ccccc3)n2)oc1C | inconclusive: 15.8 µM [inhibitor, single point] |
| COc1ccc(N2CCN(Cc3nc4c(c(=O)[nH]c(=O)n4C)n3Cc3ccccc3)CC2)cc1 | inactive |
| Cc1cccc(-c2nnc(SCC#N)n2-c2cccc(Cl)c2)c1 | inconclusive: 35.5 µM [inhibitor, single point] |
| Cc1ccc(CSc2ncnc3onc(C)c23)cc1 | inconclusive: 0.562 µM [inhibitor, single point] |
| Cc1ccc2c(c1)nc(SCC(O)c1ccc(Br)cc1)n2C (stereo not drawn) | inactive |
| COc1cccc(CNc2nc3ccccc3n2CCN2CCCCC2)c1OC | active: 11.2 µM |

| SMILES | Potency |
| --- | --- |
| CC1(C)C2CC=C(/C=N/NC(=O)c3ccc(O)cc3)C1C2 (stereo not drawn) | inactive |
| CC(C)NC(=O)c1cc2ccccc2o1 | inconclusive: 3.16 µM [activator, partial curve, poor fit] |
| COC(=O)C1=C(C)NC(=O)NC1c1ccco1 (stereo not drawn) | inconclusive: 0.562 µM [inhibitor, full curve, poor fit] |
| O=C(c1ccc(OCc2cn3ccccc3n2)cc1)N1CCN(S(=O)(=O)c2ccccc2F)CC1 | inconclusive: 35.5 µM [inhibitor, single point] |
| O=C(COc1ccccc1[N+](=O)[O-])N(Cc1ccccc1)c1ccccn1 | inconclusive: 14.1 µM [inhibitor, partial curve, poor fit] |
| CN=Cc1c(NC)nc2c(C)cccn2c1=O | inconclusive: 0.0891 µM [activator, full curve, poor fit] |
| Cc1ccc2nc(-c3ccncc3)cc(C(=O)N3CCC4(CC3)OCCO4)c2c1 | inconclusive: 12.6 µM [inhibitor, partial curve, poor fit] |
| CCCCCCn1c(=O)[nH]c2nc3cc(N)ccc3nc2c1=O | inconclusive: 2.24 µM [activator, partial curve] |
| Cc1ccccc1S(=O)(=O)Oc1ccccc1C(=O)Oc1ccccc1 | inactive |
| CCN(CCn1cccn1)C(=O)c1cc(COc2cccc3cccnc23)on1 | inconclusive: 1.41 µM [inhibitor, partial curve, poor fit] |
| Cc1ccc(C2C3=C(CCCC3=O)N=C3c4ccccc4C(=O)C32)cc1 (stereo not drawn) | inconclusive: 4.11 µM [inhibitor, full curve, poor fit] |
| CN(c1ccccc1)c1ccc(/C=N/N2CCOCC2)cc1 | inconclusive: 5.62 µM [inhibitor, full curve, poor fit] |
| Cc1ccccc1Oc1nc2c(c(=O)n(C)c(=O)n2C)n1Cc1ccc(Br)cc1 | inactive |
| CCCc1noc2c1/C(=N\O)CCC2 | inconclusive: 29.1 µM [activator, single point] |
| Cn1c(N2CCN(S(=O)(=O)c3ccc(Cl)cc3)CC2)nc2ccccc21 | inactive |
| O=C(N/N=C/c1ccc[nH]1)c1cc(-c2cccs2)nc2ccccc12 | inconclusive: 7.08 µM [inhibitor, partial curve, poor fit] |
| COc1ccc(C(=O)C[n+]2cn(C(F)F)c3ccccc32)c(F)c1 | inactive |
| Cc1ccc(C(=O)Nc2cccc(NC(=O)c3cccnc3)c2)cc1 | inconclusive: 3.98 µM [activator, single point] |
| COc1ccc(CN2CC(C(=O)NCc3ccc4c(c3)OCO4)CC2=O)cc1 (stereo not drawn) | inactive |
| CCOc1ccc(-n2ccnc(SCC(=O)NCCc3ccccc3)c2=O)cc1 | inconclusive: 35.5 µM [inhibitor, partial curve, poor fit] |
| CSc1cc(-c2ccccc2)n(Cc2ccccc2Cl)c(=O)c1C#N | inconclusive: 6.31 µM [inhibitor, single point] |
| CC1(C)CC(=O)c2c(oc3cc(O)c(O)cc23)C1 | inconclusive: 29.1 µM [inhibitor, single point] |
